# US10280205B2, “Method for treating cancer with an activated T lymphocyte that selectively recognizes a cancer cell consisting of specific peptide” (immatics biotechnologies GmbH, priority 2015, dated 2019)
# Test system: HLA molecules from shock-frozen tissue samples
# Experiment: Identification and label-free relative LC-MS quantitation of HLA-presented peptides on tumor and normal tissue samples (presentation profiles, presentation scores)
# Design: species or system human
substance,measurement,setting,value
1 (SLMEPPAVLLL; listed as Homo sapiens) [compound 1],number of ovarian cancers with detectable presentation,,11
512 (SLSEIVPCL; listed as Homo sapiens) [compound 512],number of ovarian cancers with detectable presentation,,3
560 (ALWDIETGQQTTT; listed as Homo sapiens) [compound 560],number of ovarian cancers with detectable presentation,,3
587 (VMNDRLYAI; listed as Homo sapiens) [compound 587],number of ovarian cancers with detectable presentation,,9
223 (ALLENIALYL; listed as Homo sapiens) [compound 223],Other relevant organs/cancerous diseases,"additional tumor types on which the peptide was found: over-presented on more than 5% of the measured tumor samples, or presented on more than 5% with ratio of geometric means tumor vs normal tissues larger than 3","IALYL Esophageal Cancer, Urinary bladder Cancer"
32 (KLDDLTQDLTV; listed as Homo sapiens) [compound 32],number of ovarian cancers with detectable presentation,,8
463 (SLVESHLSDQLTL; listed as Homo sapiens) [compound 463],number of ovarian cancers with detectable presentation,,5
514 (ILVDWLVQV; listed as Homo sapiens) [compound 514],number of breast cancers with detectable presentation,breast cancers,1
same,number of cancer tissues with detectable presentation of the peptide,"cancer tissues, total, FIG. 1D, 1L-1AE",49
same,number of cell lines and primary cultures with detectable presentation of the peptide,"cell lines / primary cultures, FIG. 1D, 1L-1AE",6
same,peptide additionally detected on chronic lymphocytic leukemias (positive/tested samples),"chronic lymphocytic leukemias, sample set of FIG. 1A-1D",2/12
same,number of colon cancers with detectable presentation,colon cancers,3
same,peptide additionally detected on colorectal cancers (positive/tested samples),"colorectal cancers, sample set of FIG. 1A-1D",5/28
same,number of esophageal cancers with detectable presentation,esophageal cancers,2
same,peptide additionally detected on esophageal cancers (positive/tested samples),"esophageal cancers, sample set of FIG. 1A-1D",2/17
same,number of gallbladder cancers with detectable presentation,gallbladder cancers,1
same,number of leukemias with detectable presentation,leukemias,2
same,number of liver cancers with detectable presentation,liver cancers,3
same,peptide additionally detected on liver cancers (positive/tested samples),"liver cancers, sample set of FIG. 1A-1D",2/16
same,number of lung cancers with detectable presentation,lung cancers,21
same,peptide additionally detected on lung cancers (positive/tested samples),"lung cancers, sample set of FIG. 1A-1D",17/91
same,peptide additionally detected on melanomas (positive/tested samples),"melanomas, sample set of FIG. 1A-1D",1/2
same,number of normal bone marrows with detectable presentation,normal tissue: bone marrow,2
same,number of normal spleens with detectable presentation,normal tissue: spleen,2
same,number of normal tissues with detectable presentation of the peptide,"normal tissues, total, FIG. 1D, 1L-1AE",4
same,number of ovarian cancers with detectable presentation,,7
same,number of rectum cancers with detectable presentation,rectum cancers,23
same,number of skin cancers with detectable presentation,skin cancers,1
same,peptide additionally detected on small cell lung cancers (positive/tested samples),"small cell lung cancers, sample set of FIG. 1A-1D",4/15
same,number of stomach cancers with detectable presentation,stomach cancers,4
same,peptide additionally detected on stomach cancers (positive/tested samples),"stomach cancers, sample set of FIG. 1A-1D",4/46
same,number of testis cancers with detectable presentation,testis cancer,1
same,number of urinary bladder cancers with detectable presentation,urinary bladder cancers,1
same,peptide additionally detected on urinary bladder cancers (positive/tested samples),"urinary bladder cancers, sample set of FIG. 1A-1D",1/4
57 (TLAELQPPVQL; listed as Homo sapiens) [compound 57],number of ovarian cancers with detectable presentation,,5
184: peptide found in RNF213 (gene looked up) (YLMDINGKMWL; listed as Homo sapiens) [compound 184],number of ovarian cancers with detectable presentation,,5
11 (KIFEMLEGV; listed as Homo sapiens) [compound 11],number of ovarian cancers with detectable presentation,,5
198 (KTINKVPTV; listed as Homo sapiens) [compound 198],number of ovarian cancers with detectable presentation,,8
